Experimental data taken from the supplement of paper PMC10849652.
The other results are listed elsewhere or left out.

Protein sequences, listed by entry. Tags and fused reporters are not part of them. Lines headed by an entry give the natural chain unless they say otherwise; changes in a name come on top.
UniProt P59923: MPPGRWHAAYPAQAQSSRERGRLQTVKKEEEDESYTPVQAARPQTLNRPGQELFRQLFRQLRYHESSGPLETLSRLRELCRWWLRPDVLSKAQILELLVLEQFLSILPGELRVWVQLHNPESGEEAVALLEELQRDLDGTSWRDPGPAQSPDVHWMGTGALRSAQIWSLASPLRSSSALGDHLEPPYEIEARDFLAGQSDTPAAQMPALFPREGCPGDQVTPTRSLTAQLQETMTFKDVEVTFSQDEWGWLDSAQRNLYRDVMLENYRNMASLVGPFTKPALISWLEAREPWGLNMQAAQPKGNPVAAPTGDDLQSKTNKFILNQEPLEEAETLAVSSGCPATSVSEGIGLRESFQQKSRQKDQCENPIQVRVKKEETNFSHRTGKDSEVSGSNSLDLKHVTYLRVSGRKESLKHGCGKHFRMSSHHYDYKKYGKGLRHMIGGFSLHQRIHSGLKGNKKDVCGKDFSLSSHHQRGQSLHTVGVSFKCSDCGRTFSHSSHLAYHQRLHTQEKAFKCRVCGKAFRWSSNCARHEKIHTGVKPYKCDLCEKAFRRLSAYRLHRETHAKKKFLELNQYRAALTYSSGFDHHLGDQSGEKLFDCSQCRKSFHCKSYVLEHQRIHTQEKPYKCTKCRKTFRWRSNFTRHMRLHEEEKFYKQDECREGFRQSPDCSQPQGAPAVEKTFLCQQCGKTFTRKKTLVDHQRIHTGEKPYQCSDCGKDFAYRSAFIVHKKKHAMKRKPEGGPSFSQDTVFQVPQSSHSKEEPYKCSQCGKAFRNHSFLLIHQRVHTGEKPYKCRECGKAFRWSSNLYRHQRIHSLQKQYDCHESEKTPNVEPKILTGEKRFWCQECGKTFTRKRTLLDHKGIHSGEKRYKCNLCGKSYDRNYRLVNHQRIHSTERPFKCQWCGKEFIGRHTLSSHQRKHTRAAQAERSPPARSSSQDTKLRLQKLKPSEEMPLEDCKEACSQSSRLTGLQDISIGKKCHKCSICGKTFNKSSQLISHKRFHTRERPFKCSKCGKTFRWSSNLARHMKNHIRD
UniProt Q9H900: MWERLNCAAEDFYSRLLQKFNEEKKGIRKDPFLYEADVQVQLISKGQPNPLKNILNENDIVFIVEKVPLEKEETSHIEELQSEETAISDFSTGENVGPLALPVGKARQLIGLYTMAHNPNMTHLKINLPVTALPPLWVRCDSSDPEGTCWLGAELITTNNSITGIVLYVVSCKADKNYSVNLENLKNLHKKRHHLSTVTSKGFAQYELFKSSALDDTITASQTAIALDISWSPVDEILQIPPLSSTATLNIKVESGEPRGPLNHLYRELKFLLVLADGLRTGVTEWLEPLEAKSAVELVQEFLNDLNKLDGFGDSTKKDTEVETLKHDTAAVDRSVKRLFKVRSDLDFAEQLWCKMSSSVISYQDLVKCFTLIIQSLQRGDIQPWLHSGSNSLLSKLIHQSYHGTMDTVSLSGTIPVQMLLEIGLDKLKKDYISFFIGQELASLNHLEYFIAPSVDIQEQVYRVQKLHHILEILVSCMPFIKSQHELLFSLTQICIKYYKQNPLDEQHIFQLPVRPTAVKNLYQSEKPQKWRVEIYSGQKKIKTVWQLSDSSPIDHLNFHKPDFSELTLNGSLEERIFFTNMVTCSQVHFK
UniProt O00488: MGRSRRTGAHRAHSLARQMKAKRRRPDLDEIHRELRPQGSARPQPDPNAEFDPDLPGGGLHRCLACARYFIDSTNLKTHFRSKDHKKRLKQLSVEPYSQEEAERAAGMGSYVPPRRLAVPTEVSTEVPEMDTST
UniProt O43257, whole entry, looked up: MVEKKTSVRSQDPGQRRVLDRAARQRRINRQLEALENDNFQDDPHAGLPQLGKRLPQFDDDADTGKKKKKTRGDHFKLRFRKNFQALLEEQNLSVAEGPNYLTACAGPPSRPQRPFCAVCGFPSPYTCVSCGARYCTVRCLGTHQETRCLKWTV
UniProt Q96PM9: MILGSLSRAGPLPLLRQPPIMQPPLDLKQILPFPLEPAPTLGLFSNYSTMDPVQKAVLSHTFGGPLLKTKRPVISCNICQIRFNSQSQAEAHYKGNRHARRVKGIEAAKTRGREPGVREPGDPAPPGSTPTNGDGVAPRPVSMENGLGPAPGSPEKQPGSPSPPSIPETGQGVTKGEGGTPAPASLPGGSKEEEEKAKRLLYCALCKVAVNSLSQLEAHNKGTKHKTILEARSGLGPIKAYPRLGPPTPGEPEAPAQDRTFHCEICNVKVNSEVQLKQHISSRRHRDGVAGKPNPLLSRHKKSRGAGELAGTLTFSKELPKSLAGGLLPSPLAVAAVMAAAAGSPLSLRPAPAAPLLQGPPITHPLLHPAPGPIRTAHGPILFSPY
UniProt K7EIQ3: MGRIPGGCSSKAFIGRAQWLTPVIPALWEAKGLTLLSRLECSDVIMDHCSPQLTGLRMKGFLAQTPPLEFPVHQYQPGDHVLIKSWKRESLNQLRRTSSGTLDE
UniProt Q96E35: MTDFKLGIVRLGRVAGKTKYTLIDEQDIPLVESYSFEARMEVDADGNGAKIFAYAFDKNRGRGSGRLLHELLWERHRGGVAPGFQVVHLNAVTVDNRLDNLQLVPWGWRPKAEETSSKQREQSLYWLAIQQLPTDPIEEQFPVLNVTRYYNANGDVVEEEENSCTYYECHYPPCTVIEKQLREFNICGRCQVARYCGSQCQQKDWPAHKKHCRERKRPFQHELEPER
UniProt Q8NCK3: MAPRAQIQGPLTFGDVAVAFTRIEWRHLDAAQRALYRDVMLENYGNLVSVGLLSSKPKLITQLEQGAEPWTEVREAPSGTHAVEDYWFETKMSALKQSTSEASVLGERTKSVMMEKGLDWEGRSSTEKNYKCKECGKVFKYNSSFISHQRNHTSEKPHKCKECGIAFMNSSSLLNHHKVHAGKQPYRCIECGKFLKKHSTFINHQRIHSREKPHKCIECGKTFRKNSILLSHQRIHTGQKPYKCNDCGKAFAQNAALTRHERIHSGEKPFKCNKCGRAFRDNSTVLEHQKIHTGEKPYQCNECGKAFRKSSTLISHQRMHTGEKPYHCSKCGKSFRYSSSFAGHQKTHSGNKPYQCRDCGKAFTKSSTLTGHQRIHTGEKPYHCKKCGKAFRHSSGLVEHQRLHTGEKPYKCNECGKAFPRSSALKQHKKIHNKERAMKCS
UniProt Q86YA3: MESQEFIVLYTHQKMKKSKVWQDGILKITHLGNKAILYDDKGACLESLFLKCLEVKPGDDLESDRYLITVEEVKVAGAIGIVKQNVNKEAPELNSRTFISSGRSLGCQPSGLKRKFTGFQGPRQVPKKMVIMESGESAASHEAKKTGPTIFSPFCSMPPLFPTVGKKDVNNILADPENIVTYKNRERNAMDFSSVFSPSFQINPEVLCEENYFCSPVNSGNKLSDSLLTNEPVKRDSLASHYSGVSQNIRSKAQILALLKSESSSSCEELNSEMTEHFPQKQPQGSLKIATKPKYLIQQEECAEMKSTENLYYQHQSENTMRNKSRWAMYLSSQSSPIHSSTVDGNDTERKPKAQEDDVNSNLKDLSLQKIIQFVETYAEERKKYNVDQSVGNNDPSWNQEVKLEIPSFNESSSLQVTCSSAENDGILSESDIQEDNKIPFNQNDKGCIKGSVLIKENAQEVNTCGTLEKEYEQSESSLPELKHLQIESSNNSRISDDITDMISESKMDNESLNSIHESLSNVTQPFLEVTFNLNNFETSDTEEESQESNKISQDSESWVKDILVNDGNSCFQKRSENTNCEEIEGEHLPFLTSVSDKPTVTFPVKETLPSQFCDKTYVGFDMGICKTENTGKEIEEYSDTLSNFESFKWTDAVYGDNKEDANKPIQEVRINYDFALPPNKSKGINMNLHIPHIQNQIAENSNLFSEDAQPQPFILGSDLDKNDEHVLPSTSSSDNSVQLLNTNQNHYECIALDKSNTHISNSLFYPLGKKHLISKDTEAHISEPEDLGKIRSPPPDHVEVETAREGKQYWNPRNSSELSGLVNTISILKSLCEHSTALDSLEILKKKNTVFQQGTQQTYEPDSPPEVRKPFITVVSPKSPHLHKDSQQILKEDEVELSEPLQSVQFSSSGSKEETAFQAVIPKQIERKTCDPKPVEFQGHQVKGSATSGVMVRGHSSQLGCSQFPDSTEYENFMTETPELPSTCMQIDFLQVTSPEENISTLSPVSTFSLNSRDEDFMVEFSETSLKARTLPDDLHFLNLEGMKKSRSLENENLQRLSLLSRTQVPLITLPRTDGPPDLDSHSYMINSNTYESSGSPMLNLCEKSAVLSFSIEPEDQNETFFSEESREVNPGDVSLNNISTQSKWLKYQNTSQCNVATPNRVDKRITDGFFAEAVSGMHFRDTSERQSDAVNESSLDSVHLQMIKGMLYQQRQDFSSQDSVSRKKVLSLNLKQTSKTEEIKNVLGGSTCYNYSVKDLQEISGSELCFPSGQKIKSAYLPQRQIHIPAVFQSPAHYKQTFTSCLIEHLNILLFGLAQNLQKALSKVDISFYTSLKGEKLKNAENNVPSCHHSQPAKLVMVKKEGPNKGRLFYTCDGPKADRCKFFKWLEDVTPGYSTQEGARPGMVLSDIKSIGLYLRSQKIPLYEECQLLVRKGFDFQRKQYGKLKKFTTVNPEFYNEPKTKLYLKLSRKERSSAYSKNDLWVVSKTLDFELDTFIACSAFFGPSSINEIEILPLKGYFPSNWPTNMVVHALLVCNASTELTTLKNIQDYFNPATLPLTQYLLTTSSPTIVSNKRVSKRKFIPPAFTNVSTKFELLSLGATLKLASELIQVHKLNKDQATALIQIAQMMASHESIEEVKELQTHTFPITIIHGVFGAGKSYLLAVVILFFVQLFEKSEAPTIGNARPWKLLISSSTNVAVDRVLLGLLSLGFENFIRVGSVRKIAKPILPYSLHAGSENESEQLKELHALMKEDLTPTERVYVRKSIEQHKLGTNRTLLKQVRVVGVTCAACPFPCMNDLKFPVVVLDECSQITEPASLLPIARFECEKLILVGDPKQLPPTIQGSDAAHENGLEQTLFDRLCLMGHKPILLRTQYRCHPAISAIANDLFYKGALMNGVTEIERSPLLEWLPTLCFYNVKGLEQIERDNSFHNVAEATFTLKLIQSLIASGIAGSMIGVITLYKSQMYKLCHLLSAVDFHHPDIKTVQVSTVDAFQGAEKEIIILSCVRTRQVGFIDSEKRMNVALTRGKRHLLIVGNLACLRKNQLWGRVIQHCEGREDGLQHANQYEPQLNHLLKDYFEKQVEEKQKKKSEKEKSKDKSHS
UniProt Q96IQ9: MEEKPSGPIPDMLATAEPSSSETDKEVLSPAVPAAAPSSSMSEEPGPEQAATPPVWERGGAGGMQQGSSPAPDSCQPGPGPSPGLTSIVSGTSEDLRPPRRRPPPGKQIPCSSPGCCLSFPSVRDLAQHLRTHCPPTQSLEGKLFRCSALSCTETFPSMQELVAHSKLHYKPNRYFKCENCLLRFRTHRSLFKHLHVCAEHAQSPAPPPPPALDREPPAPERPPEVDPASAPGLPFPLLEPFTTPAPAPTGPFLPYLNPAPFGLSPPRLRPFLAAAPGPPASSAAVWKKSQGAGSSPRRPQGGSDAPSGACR
UniProt Q5VV52: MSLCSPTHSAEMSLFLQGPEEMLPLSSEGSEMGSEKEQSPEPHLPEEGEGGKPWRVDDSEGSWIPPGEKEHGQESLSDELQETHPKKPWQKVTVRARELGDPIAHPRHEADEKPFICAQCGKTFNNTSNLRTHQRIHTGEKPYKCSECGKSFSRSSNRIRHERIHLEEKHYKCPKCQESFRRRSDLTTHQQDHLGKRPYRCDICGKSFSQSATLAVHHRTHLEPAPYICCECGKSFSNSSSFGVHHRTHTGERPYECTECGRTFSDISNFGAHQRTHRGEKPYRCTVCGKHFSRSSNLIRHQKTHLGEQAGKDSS
UniProt Q99676: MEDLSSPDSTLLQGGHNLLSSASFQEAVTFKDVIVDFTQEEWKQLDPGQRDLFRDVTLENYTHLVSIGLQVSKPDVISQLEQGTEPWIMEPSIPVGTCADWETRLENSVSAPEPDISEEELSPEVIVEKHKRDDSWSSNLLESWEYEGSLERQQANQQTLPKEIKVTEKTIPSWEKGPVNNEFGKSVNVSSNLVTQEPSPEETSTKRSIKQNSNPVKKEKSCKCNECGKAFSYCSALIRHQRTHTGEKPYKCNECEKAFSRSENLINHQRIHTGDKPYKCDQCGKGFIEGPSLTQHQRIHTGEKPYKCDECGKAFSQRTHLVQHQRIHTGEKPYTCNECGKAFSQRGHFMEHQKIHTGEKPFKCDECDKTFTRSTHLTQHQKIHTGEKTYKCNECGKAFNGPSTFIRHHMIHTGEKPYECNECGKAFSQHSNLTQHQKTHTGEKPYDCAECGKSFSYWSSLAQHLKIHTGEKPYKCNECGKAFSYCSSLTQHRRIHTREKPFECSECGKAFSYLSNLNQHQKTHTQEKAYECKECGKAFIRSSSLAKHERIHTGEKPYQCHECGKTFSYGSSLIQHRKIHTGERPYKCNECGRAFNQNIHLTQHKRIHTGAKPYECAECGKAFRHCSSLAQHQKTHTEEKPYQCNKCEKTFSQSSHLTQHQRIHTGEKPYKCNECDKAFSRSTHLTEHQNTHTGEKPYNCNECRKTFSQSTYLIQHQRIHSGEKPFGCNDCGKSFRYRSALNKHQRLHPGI

Experiments:
Experiment in all cases: log2 fold change, soluble protein after heating vs DMSO (PISA); higher = thermal stabilisation; K562 lysate, 10 uM; active = over 0.2 and 3.5 SD of the protein, either way, in both replicates (recomputed)
erlotinib = compound: C#Cc1cccc(Nc2ncnc3cc(OCCOC)c(OCCOC)cc23)c1 [erlotinib]
Outline: (§1)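 Values give the log-two fold change in thermal stability against solvent controls, from duplicates. Crude K562 extract at 1 mg/mL protein, made by dounce homogenisation in PBS pH 7.4 with 1 mM MgCl2, was treated with 10 μM compound for 30 min. After 3 min heating across 48°C-58°C, aliquots were pooled, adjusted to 0.5% NP-40 at 4°C and centrifuged at 21,000xg for 90 min. The supernatant was measured by TMTpro 16plex LC-MS/MS with channel sums equalised.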

[1] = compound: C/C(=N\NC(=O)C1=CC(=CC=C1)S(=O)(=O)N2CCOCC2)/C3=C(C=CC(=C3)Cl)O
Outline: as §1

[2] = compound: C1=CC(=CC=C1C2=NC3=C(N2)C=C(C=C3)C(=O)N)OC4=CC=C(C=C4)Cl
Outline: as §1

[3] = compound: C1=CC2=C(C=CC(=C2)/C=C\3/C(=O)NC(=NCC4=CC=CS4)S3)N=C1
Outline: as §1

[4] = compound: C1=CC2=NC=CN=C2C=C1/C=C/3\C(=O)NC(=O)S3
Outline: as §1

[5] = compound: C1=CC=C(C=C1)C2=NC(=C(N2)C3=CC=NC=C3)C4=CC(=C(C=C4)Cl)O
Outline: as §1

[6] = compound: C1=CC=C2C(=C1)C3=NNC4=CC=CC(=C43)C2=O
Outline: as §1

IRAK-1-4 Inhibitor I = compound: C1COCCN1CCN2C3=CC=CC=C3N=C2NC(=O)C4=CC(=CC=C4)[N+](=O)[O-] [IRAK-1-4 Inhibitor I]
Outline: as §1

[7] = compound: C1CCN(C1)C(=O)NC2=CC=CC(=C2)NC3=NC=C(C(=N3)NCCC4=CN=CN4)Br
Outline: as §1

[8] = compound: C1CN(CCC1(CC2=CC=C(C=C2)Cl)N)C3=NC=NC4=C3C=CN4
Outline: as §1

Measured: log2 fold change

ZNF445 (UniProt P59923)
inactive: erlotinib 0.057 | [1] -0.04 | [2] 0.012 | [3] -0.024 | [4] -0.12 | [5] -0.057 | [6] -0.059 | IRAK-1-4 Inhibitor I -0.172

ZWILCH (UniProt Q9H900)
inactive: erlotinib -0.008 | [1] 0.003 | [2] -0.007 | [3] 0.025 | [4] -0.008 | [5] 0.009 | [6] -0.069 | [7] 0.023 | [8] -0.006 | IRAK-1-4 Inhibitor I -0.032

ZNF593 (UniProt O00488)
inactive: erlotinib -0.084 | [1] -0.149 | [2] 0.116 | [3] 0.003 | [4] 0.005 | [5] -0.098 | [6] 0.059 | [7] 0 | [8] 0.084 | IRAK-1-4 Inhibitor I 0.003

ZNF638 (UniProt Q14966)
inactive: erlotinib -0.002 | [1] -0.065 | [2] -0.018 | [3] -0.017 | [4] -0.019 | [5] 0.024 | [6] -0.023 | [7] -0.028 | [8] 0.025 | IRAK-1-4 Inhibitor I -0.047

ZNF451 (UniProt Q9Y4E5)
inactive: erlotinib 0.036 | [1] -0.064 | [2] -0.007 | [3] -0.002 | [4] -0.032 | [5] 0.002 | [6] -0.014 | [7] -0.096 | [8] 0.026 | IRAK-1-4 Inhibitor I -0.009

ZNHIT2 (UniProt Q9UHR6)
inactive: erlotinib -0.289 | [1] 0.174 | [2] 0.096 | [3] 0 | [4] 0.023 | [5] 0.051 | [6] -0.036 | [7] -0.029 | [8] -0.041 | IRAK-1-4 Inhibitor I -0.062

ZNHIT1 (UniProt O43257)
inactive: erlotinib -0.021 | [2] -0.025 | [4] -0.124 | [5] -0.078 | [7] 0.139 | [8] 0.159 | IRAK-1-4 Inhibitor I 0.024

ZNF525 (UniProt J3KR51)
inactive: erlotinib 0.131 | [1] 0.082 | [2] 0.139 | [3] -0.066 | [4] -0.105 | [6] -0.09

ZNF280B (UniProt Q86YH2)
inactive: erlotinib 0.124 | [1] -0.033 | [2] 0.122 | [3] 0.001 | [4] 0.083 | [6] 0.008

ZSCAN25 (UniProt Q6NSZ9)
inactive: erlotinib 0.012 | [2] -0.004

ZNF771 (UniProt Q7L3S4)
inactive: erlotinib 0.025 | [2] 0.061 | [4] -0.127

ZNRD1 (UniProt Q9P1U0)
inactive: erlotinib -0.055 | [2] -0.09

ZKSCAN8 (UniProt Q15776)
inactive: erlotinib -0.005 | [1] -0.418 | [2] -0.148 | [3] 0.004 | [5] -0.001 | [6] -0.04 | [7] 0.031 | [8] 0.006 | IRAK-1-4 Inhibitor I 0.077

ZNF76 (UniProt P36508)
inactive: erlotinib -0.009 | [1] -0.058 | [2] -0.051 | [3] -0.135 | [6] 0.074

ZNF385A (UniProt Q96PM9)
inactive: erlotinib -0.04 | [2] -0.018 | [4] 0.033 | [5] 0.039 | IRAK-1-4 Inhibitor I -0.059

ZNF639 (UniProt Q9UID6)
inactive: erlotinib -0.088 | [1] 0.052 | [2] 0.106 | [3] 0.001 | [5] -0.015 | [6] -0.104 | IRAK-1-4 Inhibitor I 0.012

ZNF687 (UniProt Q8N1G0)
inactive: erlotinib 0.049 | [2] 0.016 | [5] -0.054 | [7] 0.065 | [8] -0.129 | IRAK-1-4 Inhibitor I 0.051

ZNF561-AS1 (UniProt K7EIQ3)
inactive: erlotinib -0.411 | [2] -0.124 | [4] -0.112 | [5] -0.252 | IRAK-1-4 Inhibitor I -0.052

ZNF93 (UniProt P35789)
inactive: erlotinib 0.045 | [1] 0.083 | [2] -0.197 | [3] 0.071 | [5] 0.017 | [6] 0.037 | [7] -0.034 | [8] -0.025 | IRAK-1-4 Inhibitor I -0.025

ZNF627 (UniProt Q7L945)
inactive: erlotinib -0.02 | [2] -0.082 | [4] -0.027

ZMYND19 (UniProt Q96E35)
inactive: erlotinib -0.029 | [2] -0.03

ZNF592 (UniProt Q92610)
inactive: erlotinib 0.119 | [2] 0.065 | [4] 0.009 | [5] 0.024 | [7] -0.07 | [8] 0.094 | IRAK-1-4 Inhibitor I 0.032

ZSWIM7 (UniProt Q19AV6)
inactive: erlotinib 0.018 | [1] -0.024 | [2] 0.026 | [3] 0.04 | [5] 0.217 | [6] -0.124 | IRAK-1-4 Inhibitor I -0.018

ZMIZ2 (UniProt Q8NF64)
inactive: erlotinib -0.025 | [1] -0.013 | [2] 0.108 | [3] -0.02 | [4] -0.075 | [6] -0.041 | [7] -0.047 | [8] 0.008

ZNF74 isoform 5 (UniProt Q16587)
inactive: erlotinib -0.173 | [2] 0.108 | [4] -0.045 | [5] -0.044 | [7] 0.355 | [8] -0.048 | IRAK-1-4 Inhibitor I -0.057

ZNF654, A0A1B0GWA0
inactive: erlotinib 0.036 | [2] -0.101 | [4] -0.148 | [5] -0.043 | IRAK-1-4 Inhibitor I -0.062

ZNF852 (UniProt Q6ZMS4)
inactive: erlotinib 0.035 | [1] -0.318 | [2] 0.07 | [3] -0.101 | [6] 0.14

ZNF326 (UniProt Q5BKZ1)
inactive: erlotinib -0.087 | [1] -0.016 | [2] 0.124 | [3] 0.113 | [5] 0.031 | [6] -0.099 | [7] 0.009 | [8] 0.038 | IRAK-1-4 Inhibitor I 0.01

ZNF668 isoform 2 (UniProt Q96K58)
inactive: erlotinib -0.026 | [2] -0.025

ZNF670 (UniProt Q9BS34)
inactive: erlotinib -0.007 | [2] 0.02

ZNF346 (UniProt Q9UL40)
inactive: erlotinib -0.057 | [2] -0.009 | [4] -0.035 | [5] -0.014 | [7] 0.016 | [8] -0.002 | IRAK-1-4 Inhibitor I 0.015

ZMYM5 (UniProt Q9UJ78)
inactive: erlotinib 0.005 | [1] 0.065 | [2] 0.072 | [3] 0 | [6] -0.09

ZYG11A (UniProt Q6WRX3)
inactive: erlotinib -0.125 | [2] -0.059 | [4] -0.061 | [5] -0.04 | IRAK-1-4 Inhibitor I -0.004

ZNF800 (UniProt Q2TB10)
inactive: erlotinib -0.012 | [2] 0.043

ZKSCAN4 (UniProt Q969J2)
inactive: erlotinib 0.048 | [1] 0.08 | [2] -0.092 | [3] 0.189 | [5] 0.165 | [6] 0.055 | IRAK-1-4 Inhibitor I -0.023

ZNF669 (UniProt Q96BR6)
inactive: erlotinib -0.144 | [2] -0.033 | [4] -0.003 | [5] 0.148 | IRAK-1-4 Inhibitor I 0.015

ZNF574 isoform 2 (UniProt Q6ZN55)
inactive: erlotinib -0.122 | [2] -0.016 | [4] 0.03 | [5] -0.049 | [7] -0.053 | [8] -0.01 | IRAK-1-4 Inhibitor I -0.058

ZNF358 (UniProt Q9NW07)
inactive: erlotinib -0.078 | [2] -0.075

ZMAT5 (UniProt Q9UDW3)
inactive: erlotinib -0.099 | [2] -0.272

ZNF646 (UniProt O15015)
inactive: [5] 0.068 | IRAK-1-4 Inhibitor I 0.076

ZNF280A (UniProt P59817)
inactive: erlotinib 0.105 | [2] -0.001 | [5] -0.015 | IRAK-1-4 Inhibitor I 0.009

ZNF485 (UniProt Q8NCK3)
inactive: [5] 0.115 | IRAK-1-4 Inhibitor I 0.054

ZNF708 (UniProt P17019)
inactive: [1] -0.09 | [3] 0.117 | [6] -0.037 | [7] 0.006 | [8] -0.166

Pulled one by one from the list above (2):
ZNF593 (UniProt O00488)
inactive: erlotinib -0.084 | [1] -0.149 | [2] 0.116 | [3] 0.003 | [4] 0.005 | [5] -0.098 | [6] 0.059 | [7] 0 | [8] 0.084 | IRAK-1-4 Inhibitor I 0.003

ZWILCH (UniProt Q9H900)
inactive: erlotinib -0.008 | [1] 0.003 | [2] -0.007 | [3] 0.025 | [4] -0.008 | [5] 0.009 | [6] -0.069 | [7] 0.023 | [8] -0.006 | IRAK-1-4 Inhibitor I -0.032

Next part.

ZNF526 (UniProt Q8TF50)
inactive: erlotinib 0.009 | [2] 0.042 | [5] -0.018 | IRAK-1-4 Inhibitor I -0.021

ZNF324 (UniProt O75467)
inactive: [5] -0.048 | IRAK-1-4 Inhibitor I -0.012

ZGRF1 (UniProt Q86YA3)
inactive: [5] 0.069 | [7] 0.127 | [8] 0.061 | IRAK-1-4 Inhibitor I -0.116

ZHX3 (UniProt Q9H4I2)
inactive: [1] 0.258 | [3] 0.279 | [4] -0.002 | [5] 0.015 | [6] 0.201 | IRAK-1-4 Inhibitor I 0.029

ZNF414 isoform 2 (UniProt Q96IQ9)
inactive: [5] -0.045 | [7] 0.234 | [8] -0.054 | IRAK-1-4 Inhibitor I -0.033

ZNF100 (UniProt Q8IYN0)
inactive: [4] 0.304

ZSCAN21 (UniProt Q9Y5A6)
inactive: [7] -0.022 | [8] 0.037

ZNF417 (UniProt Q8TAU3)
inactive: [4] 0.104

ZNF410 isoform 5 (UniProt Q86VK4)
inactive: [7] 0.214 | [8] -0.395

ZNF444 (UniProt Q8N0Y2)
inactive: [4] 0.007 | [5] 0.014 | IRAK-1-4 Inhibitor I 0.033

ZNF281 (UniProt Q9Y2X9)
inactive: erlotinib -0.191 | [2] -0.106 | [5] 0.006 | IRAK-1-4 Inhibitor I 0.069

ZNF691 (UniProt Q5VV52)
inactive: [1] -0.122 | [3] 0.022 | [4] -0.099 | [5] -0.017 | [6] 0.072 | [7] -0.002 | [8] -0.059 | IRAK-1-4 Inhibitor I 0.104

ZNF595 (UniProt Q8IYB9)
inactive: [1] -0.06 | [3] -0.008 | [5] 0.011 | [6] 0.172 | [7] -0.019 | [8] -0.106 | IRAK-1-4 Inhibitor I -0.015

ZNF655 isoform 2 (UniProt Q8N720)
inactive: [1] 0.034 | [3] -0.553 | [6] -0.141

ZNF384 (UniProt Q8TF68)
inactive: erlotinib -0.002 | [2] 0.017 | [5] 0.124 | [7] -0.168 | [8] 0.083 | IRAK-1-4 Inhibitor I 0.051

ZNF77 (UniProt Q15935)
inactive: [1] -0.123 | [3] 0.066 | [6] -0.076 | [7] 0.354 | [8] -0.499

ZNF184 (UniProt Q99676)
inactive: [5] -0.005 | IRAK-1-4 Inhibitor I -0.006
